This test concerns the target human heat shock protein Hsp90α (human) (UniProt P07900). Briefly: dot blot assay, direct interaction with Hsp90α.

No constants are given. Whether binding was seen depends on the method and setting. Some entries that bind do so weakly or less than the wild type.

B1: Lpl1 native protein (267 aa), Staphylococcus aureus USA300 (protein)
chain: CGKGNETKEDSKEEQIKKSFAITLDMYPIKNLEDLYDKEGYRDSEFKKGDKGMWTIYTDFAKSNKPGELDDEGMVLNLDRNTRTAKGHYFVTTFYRNGKLPDEKNYKIEMKNNKIILLDEVKDDKLKQKIENFKFFGQYANLKELRKYNNGDVSINENVPSYDVEYKMSNKDEIVKELRSRYNISTEKSPILKMHIDGDLKGSSVGYRKLEIDFSKRENSKLSVIEFLSYKPAKK
B1: the binding result is reported as “binds”.

For the origin of these results see patent EP4201483A1, “LPL1 DERIVED IMMUNE ENHANCING PEPTIDES” (priority 2021, dated 2023).
